Experimental data as given in EP1537869A2, “Radiosensibilizer and preparation thereof” (Christian-Albrechts-Universität zu Kiel, priority 2003, dated 2005).
The name of at least one read-out is uncertain.

Tested on: CHO-Zellsystem
Test: In vitro toxicity in the CHO cell system, aerobic conditions (toxicity parameter PE)
Settings: 3 Std.

For “Dichloro-2-pyridinal-(2,3-dihydro-1,5-dimethyl-3-oxo-2-phenyl-1H-pyrazol-4-ylimin)-palladium(II) [(Antipy-PCD)PdCl2]”, which PE (300 µM) is on record?
The PE was 0,40.

With “Dichloro-2-pyridinal-(2,3-dihydro-1,5-dimethyl-3-oxo-2-phenyl-1H-pyrazol-4-ylimin)ammin-platin(II) [(Antipy-PCD)PtCl2(NH3)]” as the substance, how does the PE (150 µM) read?
Its PE is 0,55.
